{"source": "the supplement of paper PMC4604168 (melanoma cell lines)", "note": "This is one part of the list. Single values are uncertain, as repeats are few or missing.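 Imaging used 1,536-well plates; nuclei positive for cleaved PARP by antibody were divided by total DNA-stained nuclei to yield the apoptosis fraction. Doses for screening kept most cells viable, and cell lines differ markedly in resting and induced cleaved-PARP levels.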", "data": [{"test_system": "LOXIMVI", "assay": "cleaved PARP positive nuclei fraction relative to DMSO control; melanoma cells; higher = more apoptosis", "conditions": "library dose: low library concentration; 72 h", "units": {"cleaved PARP positive nuclei fraction": "%"}, "values": [{"smiles": "C=CCn1c(=O)c2cnc(Nc3ccc(N4CCN(C)CC4)cc3)nc2n1-c1cccc(C(C)(C)O)n1", "note": "+ Oc1nc(-c2ccc(C(F)(F)F)cc2)nc2c1CSCC2 [XAV939] (first compound 0.02 µM, partner dose 2 µM)", "cleaved PARP positive nuclei fraction": 305}, {"smiles": "Nc1cccc2c1CN(C1CCC(=O)NC1=O)C2=O", "note": "(stereo unspecified) [lenalidomide] + CCCCCCCCCCCC1=C(O)C(=O)C=C(O)C1=O [Embelin] (first compound 1 µM, partner dose 1.2 µM)", "cleaved PARP positive nuclei fraction": 113}, {"smiles": "C[C@@H]1CCN(C(=O)CC#N)C[C@@H]1N(C)c1ncnc2[nH]ccc12", "note": "+ Oc1cc(-c2nc(-c3ccccc3)[nH]c2-c2ccncc2)ccc1Cl [L779450] (first compound 1 µM, partner dose 0.2 µM)", "cleaved PARP positive nuclei fraction": 54.3}, {"smiles": "Cc1cc(N2CCOCC2)cc2[nH]c(-c3c(NC[C@@H](O)c4cccc(Cl)c4)cc[nH]c3=O)nc12", "note": "+ Cc1cc([N+](=O)[O-])ccc1NS(=O)(=O)c1cc(Cl)ccc1Cl [FH535] (first compound 0.2 µM, partner dose 1 µM)", "cleaved PARP positive nuclei fraction": 74.1}, {"smiles": "C=CCn1c(=O)c2cnc(Nc3ccc(N4CCN(C)CC4)cc3)nc2n1-c1cccc(C(C)(C)O)n1", "note": "+ O=C1NC(=O)/C(=C/c2ccc(-c3ccc(F)cc3O)o2)S1 [AS252424] (first compound 0.02 µM, partner dose 1 µM)", "cleaved PARP positive nuclei fraction": 73.2}, {"smiles": "Cc1ccc(NC(=O)c2cccc(N(C)C)c2)cc1NC(=O)c1ccc(O)cc1", "note": "+ N#Cc1c(O)c2c(-c3ccc(-c4ccccc4O)cc3)csc2[nH]c1=O [A769662] (first compound 2 µM, partner dose 2 µM)", "cleaved PARP positive nuclei fraction": 17}]}]}
